Data taken from article PMC4398414.
No constants are given. Whether binding was seen depends on the method and setting. Binding seen in cells or lysates may run through a third protein. Tags and fused reporters may be left off the sequences shown.

By UniProt entry, the sequences of proteins in these tests, tags left out.
UniProt P08659: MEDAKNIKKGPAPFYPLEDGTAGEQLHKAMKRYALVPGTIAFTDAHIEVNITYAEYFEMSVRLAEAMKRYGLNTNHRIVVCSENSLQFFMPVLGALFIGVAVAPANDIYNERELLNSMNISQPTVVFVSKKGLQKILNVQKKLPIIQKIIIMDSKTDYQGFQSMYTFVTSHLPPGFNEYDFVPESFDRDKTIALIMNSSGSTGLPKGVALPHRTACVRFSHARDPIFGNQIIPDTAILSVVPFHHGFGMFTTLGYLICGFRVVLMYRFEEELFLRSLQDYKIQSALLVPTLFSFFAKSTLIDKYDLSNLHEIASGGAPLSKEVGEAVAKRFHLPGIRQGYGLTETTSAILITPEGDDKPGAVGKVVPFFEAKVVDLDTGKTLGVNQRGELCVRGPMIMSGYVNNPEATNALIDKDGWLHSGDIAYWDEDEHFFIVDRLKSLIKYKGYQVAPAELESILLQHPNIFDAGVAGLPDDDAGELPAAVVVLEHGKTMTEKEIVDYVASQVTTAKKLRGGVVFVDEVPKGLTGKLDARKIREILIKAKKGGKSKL

Molecular target: T1, cytoplasmic domain of UNC-40 fused to GST (C. elegans) (UniProt G5EF96)
T1 sequence: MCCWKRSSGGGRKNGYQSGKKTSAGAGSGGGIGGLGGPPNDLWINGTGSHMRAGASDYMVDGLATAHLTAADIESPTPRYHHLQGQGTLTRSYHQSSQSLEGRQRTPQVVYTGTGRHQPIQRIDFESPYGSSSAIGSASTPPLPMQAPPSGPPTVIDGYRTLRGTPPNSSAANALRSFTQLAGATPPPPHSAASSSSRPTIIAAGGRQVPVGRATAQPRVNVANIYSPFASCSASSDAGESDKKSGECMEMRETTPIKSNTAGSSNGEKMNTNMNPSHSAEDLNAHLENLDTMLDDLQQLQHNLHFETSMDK
Experiment: pull-down; GST fusion coupled to Glutathione-Sepharose; biotin-labelled in vitro translated protein; 16 hours at 4°C in PBS with 0.1% Triton X-100, 1% BSA and protease inhibitors; 3 washes; detected with Strepavidin-Alkaline Phosphatase; only the target purified

Substance: luciferase (from UniProt P08659 1-550)
- binding: no binding
